{
  "source": "paper PMC10183829",
  "about": "(2023)",
  "parents": {"B1": {"name": "mCh-AtC53 [Arabidopsis thaliana] / GST-GABARAP [human] (parent complex)", "chain 1": "MPSQDDVQNLPIDITFSRLGEWLVDRKRIPADWRKRVAVIRVKILKEFSSLPKEIDPFFQTLDPEVIGYLEVKKVYEILLKTTPESRNIFGRLSGASGVWEAIVRAFEKDHIYLGEAAQIIIQNVNYEIPYLKKQVQKVQQQMTELDRKEADIKRSVALSATKYEDACRELGLQGNNVRRELLETASSLPSTFSKILEVINSDSVTGAMEYYSAYVQDVHTEKDKPLRIVLQNLKYIRENPPSLSVFGDSEGLDADNIQSSENANGTDAAADSIDWDITVETPEIDWDVSMVEEVDSGNDLGSYEIVNASDIPENSPFKVEESQGLEVDVSEISWDVSVETPQVEEIGDSALLESNQTQLTDSTTQVLGSGGERSQLLETEYRNKILDDLYEVKAFLNQRLIELRNEDTLSLQHHVQAVSPMVLQQYSPETIEPMVVDISMAISLLTNKKSRDLIMILNSKRFLDRLVSELEEKKHREVKLRESLKDVGRRRMELQNSLSAIWPKQEAALSKTRELKELCETSLSSMFDGRPVNIRGEINTLLNAGVSA", "chain 2": "MKFVYKEEHPFEKRRSEGEKIRKKYPDRVPVIVEKAPKARIGDLDKKKYLVPSDLTVGQFYFLIRKRIHLRAEDALFFFVNNVIPPTSATMGQLYQEHHEEDFFLYIAYSDESVYGL"}},
  "data": [
    {"variants_of": "B1", "experiment": "microscopy-based protein-protein interaction assay (on-bead binding, confocal); 1 μM C53 protein; glutathione-sepharose beads with GST-GABARAP; read off a plot", "units": {"response": "normalized fluorescence"}, "values": [
      {"variant": "chain 1 W276A, chain 1 W287A, chain 1 W335A", "response": "~0.27"}
    ]}
  ]
}
